At least one compound was matched to its structure with a doubt left.
Legend:
[1] = system: human induced pluripotent stem cell-derived cardiac progenitor cells; test: Quantitative PCR of heart field and cardiac markers in differentiating hiPSCs (day 0 to day 7); format: cell-based
Protocol: (§1) For LV-cardiomyocyte differentiation, cardiac differentiation was performed according to the protocol published by (Lian et al., 2012, Proc Natl Acad Sci USA 109:[…]-57). Cells were dissociated with StemPro Accutase Cell Dissociation Reagent at 37° C. for 5 minutes. HESCs were seeded on Matrigel-coated 24-well plates (Corning) in StemFlex Medium supplemented with 10 μmol/[…] were seeded on iMatrix-511-coated 12-well plates (Corning) in StemFit A[…] supplemented with 10 μmol/[…] at seeding densities of 1×10^5 cells/cm^2 for hESCs and 1.25-2.5×10^4 cells/cm^2 for hiPSCs. Cells were cultured for 4 days until the start of differentiation (day 0). On day 0, the medium was changed to RPMI 1640 Medium (Thermo Fisher Scientific) supplemented with B-27 Supplement minus insulin (Thermo Fisher Scientific) (RPMI/B27-insulin) or B-27 Supplement with insulin (Thermo Fisher Scientific), and 12 μmol/L CHIR 99021 (SelleckChem, Houston, TX, United States), and the cells incubated in this medium for 24 h (day 1). On day 1, the medium was changed to RPMI/B27-insulin. […] On day 3, the medium was changed to RPMI/B27-insulin supplemented with 5 μmol/L IWP2 (SelleckChem) and on day 5, the medium was changed to 1 ml RPMI/B27-insulin. From day 7, the cells were cultured with RPMI/B27-insulin, and the cells were fed every other day. On day 12, the cells were washed with PBS (Thermo Fisher Scientific) and cultured with DMEM or RPMI, no glucose supplemented with 8 mmol/L L-(+)-Lactic acid (Merck) (Tohyama et al., 2013 Cell Stem Cell, 12:127-37). The medium was changed every other day until day 17. After day 17, the cells were cultured with RPMI/B27 and fed every 2 to 3 days. For long-term culture, the cells were dissociated with TrypLETM Select Enzyme (10×) (Thermo Fisher Scientific) at 37° C. for 15-20 minutes and seeded on Matrigel- or iMatrix-511-coated plates. […] For FIG. 15A and FIG. 15B, dorsomorphin (DM) or 3 μg/L insulin were added on day 0 (for 24 hours), 1, 3, or 5 (for 48 hours). Cells were lysed with TRIzolTM Reagent (Thermo Fisher Scientific). Total RNA was extracted using a PureLinkTM RNA Mini Kit (Thermo Fisher Scientific). […] PowerUpTM SYBR Green Master Mix (Thermo Fisher Scientific) and QuantStudio 1 (Thermo Fisher Scientific) were used for quantitative PCR (q-PCR), wherein q-PCR data were processed using the ΔΔCT method. These q-PCR experiments were performed in technical duplicate. An RT^2 Profiler PCR Array Human Fatty Acid Metabolism (Qiagen, Hilden, Germany) was used to examine fatty acid metabolism genes because it has been reported that there are differences in lipid metabolism between the LV and RV. Data were analyzed with the web-based tool of GeneGlobe Data Analysis Center (Qiagen).

reporterless hiPSC line = test: Immunostaining of marker proteins in hiPSC-derived cardiac progenitor cells and cardiomyocytes; format: cell-based, human
Protocol: For LV-cardiomyocyte differentiation, cardiac differentiation was performed according to the protocol published by (Lian et al., 2012, Proc Natl Acad Sci USA 109:[…]-57). Cells were dissociated with StemPro Accutase Cell Dissociation Reagent at 37° C. for 5 minutes. HESCs were seeded on Matrigel-coated 24-well plates (Corning) in StemFlex Medium supplemented with 10 μmol/[…] were seeded on iMatrix-511-coated 12-well plates (Corning) in StemFit A[…] supplemented with 10 μmol/[…] at seeding densities of 1×10^5 cells/cm^2 for hESCs and 1.25-2.5×10^4 cells/cm^2 for hiPSCs. Cells were cultured for 4 days until the start of differentiation (day 0). On day 0, the medium was changed to RPMI 1640 Medium (Thermo Fisher Scientific) supplemented with B-27 Supplement minus insulin (Thermo Fisher Scientific) (RPMI/B27-insulin) or B-27 Supplement with insulin (Thermo Fisher Scientific), and 12 μmol/L CHIR 99021 (SelleckChem, Houston, TX, United States), and the cells incubated in this medium for 24 h (day 1). On day 1, the medium was changed to RPMI/B27-insulin. […] On day 3, the medium was changed to RPMI/B27-insulin supplemented with 5 μmol/L IWP2 (SelleckChem) and on day 5, the medium was changed to 1 ml RPMI/B27-insulin. From day 7, the cells were cultured with RPMI/B27-insulin, and the cells were fed every other day. On day 12, the cells were washed with PBS (Thermo Fisher Scientific) and cultured with DMEM or RPMI, no glucose supplemented with 8 mmol/L L-(+)-Lactic acid (Merck) (Tohyama et al., 2013 Cell Stem Cell, 12:127-37). The medium was changed every other day until day 17. After day 17, the cells were cultured with RPMI/B27 and fed every 2 to 3 days. For long-term culture, the cells were dissociated with TrypLETM Select Enzyme (10×) (Thermo Fisher Scientific) at 37° C. for 15-20 minutes and seeded on Matrigel- or iMatrix-511-coated plates. […] For FIG. 15A and FIG. 15B, dorsomorphin (DM) or 3 μg/L insulin were added on day 0 (for 24 hours), 1, 3, or 5 (for 48 hours). Cells were plated on iMatrix-511-coated plates and fixed in 4% paraformaldehyde (Nacalai, Kyoto, Japan) for 15 minutes. Cells were permeabilized with 0.1% Triton X-100 (Sigma-Aldrich, St. Louis, MO, United States)/PBS and blocked with 10% goat serum (Sigma-Aldrich). Primary and secondary antibodies were diluted in 0.1% Triton X-100/PBS with 5% goat serum and stained with Hoechst 33342 (Thermo Fisher Scientific) at 1 μg/mL, mouse anti-cardiac troponin T monoclonal IgG1 (GTX28295, GeneTex, Irvine, CA, United States) diluted at 1:16000, mouse anti-α-actinin monoclonal IgG1 (A7811, Sigma-Aldrich) diluted at 1:1000, rabbit anti-MLC2v monoclonal IgG (ab92721, Abcam, Cambridge, United Kingdom) diluted at 1:500, rabbit anti-CXCR4 monoclonal IgG (ab181020, Abcam) diluted at 1:2000, rabbit anti-NKX2-5 monoclonal IgG (Cat #. […], Cell Signaling Technology, Danvers, MA, United States) diluted at 1:2500, mouse anti-Nav1.5 (Car #. ASC-013, Alomone Labs) diluted at 1:1000, rabbit anti-connexin 43 (Cat #. 83649, Cell Signaling Technology) diluted at 1:1000, and mouse anti-TBX5 monoclonal IgG2a (Cat #. sc-515536, Santa Cruz Biotechnology, Dallas, TX, United States) diluted at 1:500. These cells were then incubated with a secondary antibody, goat anti-mouse or rabbit polyclonal IgG conjugated with iFluor 488 or 555 (AAT Bioquest, Sunnyvale, CA, United States) diluted at 1:1000, for 1 hour at room temperature. The cells were then observed with IX71 (Olympus, Tokyo, Japan) or EVOS FL Auto (Thermo Fisher Scientific) and images processed with ImageJ ([…] al., 2012, Nat Methods, 9:671-5).

hiPSC-derived cells [2] = test: Flow cytometry of cardiac troponin T (cTnT); format: cell-based, human; conditions: 1 μmol/L on day 0; day 12; vs control cells
Protocol: For LV-cardiomyocyte differentiation, cardiac differentiation was performed according to the protocol published by (Lian et al., 2012, Proc Natl Acad Sci USA 109:[…]-57). Cells were dissociated with StemPro Accutase Cell Dissociation Reagent at 37° C. for 5 minutes. HESCs were seeded on Matrigel-coated 24-well plates (Corning) in StemFlex Medium supplemented with 10 μmol/[…] were seeded on iMatrix-511-coated 12-well plates (Corning) in StemFit A[…] supplemented with 10 μmol/[…] at seeding densities of 1×10^5 cells/cm^2 for hESCs and 1.25-2.5×10^4 cells/cm^2 for hiPSCs. Cells were cultured for 4 days until the start of differentiation (day 0). On day 0, the medium was changed to RPMI 1640 Medium (Thermo Fisher Scientific) supplemented with B-27 Supplement minus insulin (Thermo Fisher Scientific) (RPMI/B27-insulin) or B-27 Supplement with insulin (Thermo Fisher Scientific), and 12 μmol/L CHIR 99021 (SelleckChem, Houston, TX, United States), and the cells incubated in this medium for 24 h (day 1). On day 1, the medium was changed to RPMI/B27-insulin. […] On day 3, the medium was changed to RPMI/B27-insulin supplemented with 5 μmol/L IWP2 (SelleckChem) and on day 5, the medium was changed to 1 ml RPMI/B27-insulin. […] The cells were resuspended in 0.5% bovine serum albumin (Merck)/PBS and analyzed with an Attune NxT Flow Cytometer (Thermo Fisher Scientific).

hiPSC-derived cells [3] = test: Metabolic selection using no glucose medium supplemented with lactic acid; format: cell-based, human; conditions: 2 μmol/L on day 0
hPSC-CMs = test: Quantitative PCR of purified hiPSC-derived cardiomyocytes; format: cell-based, human; conditions: vs control
Protocol: as §1

[4] = system: hiPSC-derived cardiomyocytes; test: RT2 Profiler PCR Array Human Fatty Acid Metabolism (84 genes); format: cell-based; conditions: 1 μmol/L on day 0; cardiomyocytes day 20; vs control cardiomyocytes
201B7 hiPSCs = test: Immunostaining in commercially available hiPSC line 201B7; format: cell-based, human
[5] = system: hiPSC-derived cardiomyocytes; test: Phenotypic characteristics of cardiomyocytes (contraction, morphology, sarcomere, cell size); format: cell-based, human
[6] = system: hiPSC-derived cardiomyocytes; test: Measurement of intracellular Ca2+ transients (Fura 2-AM); format: cell-based, human; conditions: day 34; 0.2 Hz field stimulation; vs control cardiomyocytes
[7] = 1 μmol/L on day 0, day 0 to day 7
[8] = added on differentiation day 0, measured on day 7, dose-dependent
[9] = 1 μmol/L on day 0, purified cardiomyocytes day 20

What does the source list for `c1cc(-c2cnn3cc(-c4ccc(OCCN5CCCCC5)cc4)cnc23)ccn1` [dorsomorphin]?
expression of CORIN and CD82 (q-PCR time course) [1, 7]: suppressed; expression of NKX2-5 and TNNT2, pan-cardiac markers (q-PCR time course) [1, 7]: delayed; upregulation of TBX5 (q-PCR time course) [1, 7]: completely suppressed; ISL1 expression (q-PCR time course) ([1]; 1 μmol/L on day 0, until day 7): gradual upregulation; expression of FHF markers (TBX5 and HCN4) [1, 8]: reduced expression; expression of SHF markers (TBX1, ISL1 and CXCR4) [1, 8]: enhanced expression; ISL1 protein (immunolabeling) (reporterless hiPSC line; 1 μmol/L on day 0, day 6): expressed; CXCR4 protein (immunolabeling) (reporterless hiPSC line; 1 μmol/L on day 0, day 7): highly expressed; NKX2-5 protein (immunolabeling) (reporterless hiPSC line; 1 μmol/L on day 0, day 10): expressed; TBX5 protein expression (immunolabeling) (reporterless hiPSC line; 1 μmol/L on day 0, day 10): reduced; expression of NKX2-5 and cTnT in purified cardiomyocytes (immunostaining) (reporterless hiPSC line; 1 μmol/L on day 0, day 20, most of the cells): expressed; MLC2v protein (immunostaining) (reporterless hiPSC line; 1 μmol/L on day 0, day 35): expressed; induction of RV cardiomyocytes (reporterless hiPSC line; added beyond day 5): failed to induce; immunostaining signal of Nav1.5 and Connexin 43 (reporterless hiPSC line; cardiomyocytes day 34, vs control): reduction; immunostaining of TBX5 (reporterless hiPSC line; day 12, dorsomorphin on day 0 for 24 hours, on day 1 for 48 hours, or on day 3 for 48 hours): low; forward scatter of cTnT-positive cells (cell size) (hiPSC-derived cells [2]): larger forward scatter; survival of metabolic selection (hiPSC-derived cells [3]): did not survive; expression levels of HAND1 (LV marker) (qPCR) (hPSC-CMs; [9]): trended to be lower; expression of CCK (RV marker) and MYL2 (ventricular marker) (qPCR) (hPSC-CMs; [9]): significantly upregulated; expression of NKX2-5, TNNT2 and NPPA (qPCR) (hPSC-CMs; [9]): no significant difference; expression of TBX5 (LV and atrial marker) and NR2F2 (atrial and nodal marker) (qPCR) (hPSC-CMs; [9]): significantly downregulated; gene expression of SCN5A and GJA1 (qPCR) (hPSC-CMs; cardiomyocytes day 20): less gene expression; expression levels of LPL, FABP3, PRKAA2 and CPT1B (cardiac fatty acid metabolism genes) [4]: higher; CXCR4 expression (immunostaining) (201B7 hiPSCs; day 7, vs control): higher; TBX5 expression (immunostaining) (201B7 hiPSCs; day 7, vs control): lower; TBX5 expression (immunostaining) (201B7 hiPSCs; differentiation day 11, vs control): lower; Spontaneous contracting rates of cardiomyocytes ([5]; day 46, vs control cardiomyocytes): lower; sarcomere formation (immunostaining and electron microscopy) ([5]; differentiation day 50): poor sarcomere formation; cardiomyocyte size (cell area) ([5]; differentiation day 50, vs control cells): significantly larger; time from the start of contraction to relaxation ([5]; n=5, vs control cardiomyocytes): significantly longer; time to peak contraction ([5]; n=5, vs control cardiomyocytes): tended to be longer; morphology of cardiomyocytes ([5]; vs control cardiomyocytes): flat and spread out; time to peak and time to 50% decay of the calcium transient [6]: longer
